Assay results reported in patent US8629135B2, “Pharmaceutical compositions comprising RET inhibitors and methods for the treatment of cancer” (Queen's University at Kingston, priority 2008, dated 2014).
Where a name gives a salt, the structure may show the parent alone.

Chains of the proteins cited; added tags and fusions are not shown. Residues count along the entry.
UniProt P07949, 29-1114: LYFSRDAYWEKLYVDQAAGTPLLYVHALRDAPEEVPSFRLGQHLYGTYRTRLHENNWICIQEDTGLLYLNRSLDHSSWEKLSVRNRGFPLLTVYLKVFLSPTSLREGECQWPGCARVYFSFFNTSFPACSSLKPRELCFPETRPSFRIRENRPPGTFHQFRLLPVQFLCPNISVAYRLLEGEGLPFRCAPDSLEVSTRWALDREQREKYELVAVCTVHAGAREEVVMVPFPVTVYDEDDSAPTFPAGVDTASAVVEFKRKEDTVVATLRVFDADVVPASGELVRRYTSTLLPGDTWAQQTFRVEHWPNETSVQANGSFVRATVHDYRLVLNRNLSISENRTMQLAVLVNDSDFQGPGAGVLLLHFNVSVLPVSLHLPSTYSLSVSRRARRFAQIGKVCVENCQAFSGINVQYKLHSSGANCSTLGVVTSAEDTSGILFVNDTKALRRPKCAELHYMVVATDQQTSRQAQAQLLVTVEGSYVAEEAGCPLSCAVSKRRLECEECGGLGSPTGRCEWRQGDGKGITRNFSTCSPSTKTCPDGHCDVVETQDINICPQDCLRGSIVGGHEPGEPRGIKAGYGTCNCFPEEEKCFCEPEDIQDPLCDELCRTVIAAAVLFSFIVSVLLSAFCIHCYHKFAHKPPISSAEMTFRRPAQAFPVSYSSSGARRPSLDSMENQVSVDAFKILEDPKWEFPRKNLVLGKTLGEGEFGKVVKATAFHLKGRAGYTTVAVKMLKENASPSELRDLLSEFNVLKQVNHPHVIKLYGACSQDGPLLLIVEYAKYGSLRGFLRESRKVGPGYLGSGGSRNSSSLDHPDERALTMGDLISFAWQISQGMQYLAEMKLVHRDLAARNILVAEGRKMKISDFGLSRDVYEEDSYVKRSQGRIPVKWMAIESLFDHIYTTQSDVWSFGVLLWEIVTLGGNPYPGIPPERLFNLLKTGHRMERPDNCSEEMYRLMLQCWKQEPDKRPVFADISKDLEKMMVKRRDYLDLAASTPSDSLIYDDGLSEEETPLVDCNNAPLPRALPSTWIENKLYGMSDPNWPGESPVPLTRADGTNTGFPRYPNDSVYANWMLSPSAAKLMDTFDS

Assays:
RET [1] = biological target: T1, RET (Homo sapiens (Human), UniProt P07949); experiment: Protein based RET kinase assay with purified recombinant GST-RET; type: biochemical
RET [2] = biological target: T1, RET; experiment: RET autophosphorylation (pY905 Western blot) in HEK293 cells stably expressing RET; conditions: EC50, cell based assay

## CN(C)CC/C=C1\c2ccccc2COc2ccccc21 [SW-07, Doxepin Hydrochloride]
RET [1]
  IC50: > 20 µM
RET [2]
  EC50: > 10 µM
